Measurements published in patent US20200239578A1.
No constants are given. Whether binding was seen depends on the method and setting. Some results given as binding are weak or reduced against the parent protein; the word gives no strength.

Biological target: T1, rat BTLA on splenocytes of Sprague Dawley rats (rat) (UniProt Q6PNM1)
T1 sequence (looked up): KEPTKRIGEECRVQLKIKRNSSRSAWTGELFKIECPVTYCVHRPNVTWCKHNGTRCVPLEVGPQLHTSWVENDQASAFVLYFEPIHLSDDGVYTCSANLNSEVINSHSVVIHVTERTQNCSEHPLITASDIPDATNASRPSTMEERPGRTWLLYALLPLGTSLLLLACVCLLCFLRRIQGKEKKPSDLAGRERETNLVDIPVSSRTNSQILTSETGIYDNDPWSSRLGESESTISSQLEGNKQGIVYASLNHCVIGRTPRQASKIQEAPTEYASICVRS
Experiment: flow cytometry (FACS) on primary cells

binding: binds
B1: Antibody 22B3 (antibody, human IgG4 S228P, kappa, F234A L235A, V domains shown)
VH: QVQLVQSGAEVKKPGASVKVSCKASGFSLSSYGVSWVRQAPGQGLEWMGAISYDGITYYASWAKSRVTMTRDTSTSTVYMELSSLRSEDTAVYYCARGDYYDDYVYVYALDIWGQGTLVTVSS
VL: EIVLTQSPGTLSLSPGERATLSCQASQSISTALAWYQQKPGQAPRLLIYAASTLASGIPDRFSGSGSGTDFTLTISRLEPEDFAVYYCQQGYSSSNLDNVFGGGTKVEIKR
